# In PMC5814579:
# Key:
# [1] = tested on: OsASR2 (abscisic acid, stress and ripening 2) (Oryza sativa (rice, cultivar IRBB13)); assay: EMSA; conditions: 1 ug protein per reaction, LightShift Chemiluminescent EMSA kit, 20 min at room temperature, salt and pH not stated, recombinant protein, protein details: Myc (stated in Results), pET-32a vector, label: biotin (dUTP end-labelled by terminal transferase)
# [2] = tested on: OsASR2 (abscisic acid, stress and ripening 2) (Oryza sativa (rice, cultivar IRBB13)); assay: competition with a labelled probe; conditions: 5-, 25-, 50-fold molar excess over labelled N1, bands weakened; LightShift Chemiluminescent EMSA kit; 1 ug protein per reaction; 20 min at room temperature; salt and pH not stated; recombinant protein; protein details: Myc (stated in Results), pET-32a vector
Sequence,binding result [1],binding result [2]
GATTAAGATTTTTCCTACCCTA (double strand) [GT-1 probe (EMSA F/R)],binds,
GATTAAGATTTTTCCTACCCTA (double strand) [unlabelled GT-1 competitor],,binds
GATTAAGACCCCCACTACCCTA (double strand) [mutant GT-1 probe (EMSA-M F/R)],no binding,

# Construct, isoform or probe ends are uncertain for at least one entry. For part of these data: Negatives hold for the conditions tested.
